# Results reported in PMC9381590.
# Sequences of proteins named here, by UniProt entry; tags and fusion partners are left off. A change or cut given only in a name is not applied to a line headed by its entry. A line that says so, or that is headed by a name, gives the form on record, which may keep a tag or linker.
# UniProt Q13838: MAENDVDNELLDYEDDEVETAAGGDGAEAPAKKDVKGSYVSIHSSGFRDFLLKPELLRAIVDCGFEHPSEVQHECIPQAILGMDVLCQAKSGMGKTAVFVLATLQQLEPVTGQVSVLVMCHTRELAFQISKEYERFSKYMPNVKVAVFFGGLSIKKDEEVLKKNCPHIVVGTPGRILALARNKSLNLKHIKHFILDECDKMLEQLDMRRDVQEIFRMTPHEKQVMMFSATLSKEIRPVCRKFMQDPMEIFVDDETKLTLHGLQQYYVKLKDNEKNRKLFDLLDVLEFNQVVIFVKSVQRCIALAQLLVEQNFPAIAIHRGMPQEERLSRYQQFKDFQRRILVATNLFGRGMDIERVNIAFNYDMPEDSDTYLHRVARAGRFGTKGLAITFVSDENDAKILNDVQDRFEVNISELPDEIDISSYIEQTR
# UniProt P14618: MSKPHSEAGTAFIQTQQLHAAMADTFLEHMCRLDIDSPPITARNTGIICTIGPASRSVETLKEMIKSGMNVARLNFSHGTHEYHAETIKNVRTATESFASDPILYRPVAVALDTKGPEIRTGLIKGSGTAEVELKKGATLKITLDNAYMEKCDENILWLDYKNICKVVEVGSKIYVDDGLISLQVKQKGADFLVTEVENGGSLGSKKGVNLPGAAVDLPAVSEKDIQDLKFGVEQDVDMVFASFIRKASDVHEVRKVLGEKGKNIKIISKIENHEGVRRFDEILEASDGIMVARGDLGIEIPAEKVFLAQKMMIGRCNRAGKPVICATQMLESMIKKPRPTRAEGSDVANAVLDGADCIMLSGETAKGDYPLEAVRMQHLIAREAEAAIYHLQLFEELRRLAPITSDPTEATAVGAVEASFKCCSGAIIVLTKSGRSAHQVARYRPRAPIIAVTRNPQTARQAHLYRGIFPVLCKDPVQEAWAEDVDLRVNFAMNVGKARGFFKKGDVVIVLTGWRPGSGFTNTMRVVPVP
# PKM1 (P14618-2, form named): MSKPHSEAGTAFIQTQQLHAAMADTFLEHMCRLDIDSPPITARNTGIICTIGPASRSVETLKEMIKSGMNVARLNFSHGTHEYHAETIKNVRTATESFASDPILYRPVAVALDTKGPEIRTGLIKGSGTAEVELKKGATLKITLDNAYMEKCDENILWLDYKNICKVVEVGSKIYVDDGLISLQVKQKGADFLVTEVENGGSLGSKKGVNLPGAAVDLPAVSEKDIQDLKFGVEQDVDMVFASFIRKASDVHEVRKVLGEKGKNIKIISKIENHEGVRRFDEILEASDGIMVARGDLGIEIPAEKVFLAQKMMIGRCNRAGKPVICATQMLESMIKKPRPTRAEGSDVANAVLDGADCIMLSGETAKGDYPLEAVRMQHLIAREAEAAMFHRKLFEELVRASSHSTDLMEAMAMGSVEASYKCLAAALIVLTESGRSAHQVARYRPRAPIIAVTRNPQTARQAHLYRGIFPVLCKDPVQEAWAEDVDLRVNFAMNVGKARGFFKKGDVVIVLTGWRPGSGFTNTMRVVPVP
# UniProt P04406: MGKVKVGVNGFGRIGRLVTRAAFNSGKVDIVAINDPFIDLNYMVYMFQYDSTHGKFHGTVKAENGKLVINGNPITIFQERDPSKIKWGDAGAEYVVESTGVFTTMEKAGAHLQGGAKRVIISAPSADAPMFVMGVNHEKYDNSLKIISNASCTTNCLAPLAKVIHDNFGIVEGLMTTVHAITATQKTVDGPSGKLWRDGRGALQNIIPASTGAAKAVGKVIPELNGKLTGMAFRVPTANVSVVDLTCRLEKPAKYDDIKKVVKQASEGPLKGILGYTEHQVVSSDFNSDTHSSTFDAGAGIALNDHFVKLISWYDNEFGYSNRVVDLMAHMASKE
# UniProt Q9UNE7: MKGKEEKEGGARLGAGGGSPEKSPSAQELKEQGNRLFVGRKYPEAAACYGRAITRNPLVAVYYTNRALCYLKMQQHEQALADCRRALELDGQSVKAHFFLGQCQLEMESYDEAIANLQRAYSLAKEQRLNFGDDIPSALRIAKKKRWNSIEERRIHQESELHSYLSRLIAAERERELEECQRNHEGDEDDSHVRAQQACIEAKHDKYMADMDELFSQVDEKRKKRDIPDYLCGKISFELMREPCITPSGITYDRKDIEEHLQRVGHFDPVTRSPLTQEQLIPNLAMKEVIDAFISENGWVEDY
# Results are given in words; binding and its absence hold for the method and conditions named. Binding seen in cells or lysates may run through a third protein. Some binding calls cover weakened binding; strength is not graded here.
# Assays:
# [1] = target: endogenous DDX39B (human (endogenous in CRC cells)) (UniProt Q13838); assay: co-IP; endogenous proteins immunoprecipitated from CRC cell lysates; for some pairs cells stably expressing mock or DDX39B, or treated with 150 ng/ml EGF
# [2] = target: endogenous DDX39B (human (endogenous in CRC cells)) (UniProt Q13838); assay: co-IP; immunoprecipitation showing the pair in both the cytoplasm and the nucleus (Supplementary Fig. 6c); methods not shown
# [3] = target: endogenous PKM2 (human (endogenous in CRC cells)) (UniProt P14618); assay: co-IP; endogenous proteins immunoprecipitated from CRC cell lysates; for some pairs cells stably expressing mock or DDX39B, or treated with 150 ng/ml EGF
binding [1],binding [2],binding [3],Substance
binds,,,GAPDH (from UniProt P04406 1-335)
binds,,,PKM1 (from UniProt P14618-2 1-531)
binds,binds,,endogenous PKM2 (from UniProt P14618 1-531)
,,binds,endogenous STUB1 (from UniProt Q9UNE7 1-303)
